Earlier results in US20230365568A1.
The match of structure and compound is tentative.

Legend:
[1] = data from Alverez et al., 2020; cited from earlier work
[2] = data from Alverez et al., 2020; cited from earlier work; remark: listed apart in the source
[3] = data from Alverez et al., 2020; cited from earlier work; remark: listed apart in the source

Row | Compound | t1/2 (min, RLM) [1] | PAMPA [2] | Solub. [3]
1 | O=c1c2cc(F)ccc2n2c(=S)[nH]nc2n1CCc1ccccc1 | >30 min | 77.0 ×10⁻⁶ cm/s | –
2 | CCn1c(=O)c2cc(F)ccc2n2c(=S)[nH]nc12 [compound 63] | >30 min | – | >39 µg/mL
